Measurements from paper PMC11255023.
Results are given in words; binding and its absence hold for the method and conditions named. Binding seen in cells or lysates may run through a third protein. Some results given as binding are weak or reduced against the parent protein; the word gives no strength. Blank lines part the entries; values can stand above or below the substance they belong to.

Protein sequences, listed by entry. Tags and fused reporters are not part of them.
UniProt Q9Y6M1: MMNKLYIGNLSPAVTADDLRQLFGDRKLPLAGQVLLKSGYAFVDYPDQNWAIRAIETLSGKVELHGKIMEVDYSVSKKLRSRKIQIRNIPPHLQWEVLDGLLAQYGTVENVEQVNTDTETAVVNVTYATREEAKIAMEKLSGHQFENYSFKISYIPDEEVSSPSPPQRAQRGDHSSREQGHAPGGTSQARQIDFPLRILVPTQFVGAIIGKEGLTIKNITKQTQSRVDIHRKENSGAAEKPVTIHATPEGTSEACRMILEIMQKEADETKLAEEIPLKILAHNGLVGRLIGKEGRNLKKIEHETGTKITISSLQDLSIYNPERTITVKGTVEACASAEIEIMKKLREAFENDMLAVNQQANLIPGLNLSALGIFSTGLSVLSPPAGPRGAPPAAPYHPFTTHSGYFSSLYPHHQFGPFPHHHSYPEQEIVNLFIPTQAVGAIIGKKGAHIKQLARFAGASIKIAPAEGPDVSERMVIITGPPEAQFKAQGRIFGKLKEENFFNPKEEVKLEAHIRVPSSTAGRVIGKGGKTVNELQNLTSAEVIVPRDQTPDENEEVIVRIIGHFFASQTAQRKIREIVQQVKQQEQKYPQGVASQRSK
UniProt Q5VYY1: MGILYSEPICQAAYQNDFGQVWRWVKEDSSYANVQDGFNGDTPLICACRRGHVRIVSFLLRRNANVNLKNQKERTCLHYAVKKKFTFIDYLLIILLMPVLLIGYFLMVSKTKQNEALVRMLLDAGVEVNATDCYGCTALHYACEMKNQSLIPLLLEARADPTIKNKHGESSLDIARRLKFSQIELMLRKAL
UniProt P06730: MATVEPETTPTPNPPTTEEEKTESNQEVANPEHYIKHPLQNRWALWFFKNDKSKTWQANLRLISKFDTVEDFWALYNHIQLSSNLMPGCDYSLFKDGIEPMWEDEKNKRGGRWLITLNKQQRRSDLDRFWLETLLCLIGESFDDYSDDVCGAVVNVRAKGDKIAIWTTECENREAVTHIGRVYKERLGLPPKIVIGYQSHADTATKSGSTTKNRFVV
UniProt P53396: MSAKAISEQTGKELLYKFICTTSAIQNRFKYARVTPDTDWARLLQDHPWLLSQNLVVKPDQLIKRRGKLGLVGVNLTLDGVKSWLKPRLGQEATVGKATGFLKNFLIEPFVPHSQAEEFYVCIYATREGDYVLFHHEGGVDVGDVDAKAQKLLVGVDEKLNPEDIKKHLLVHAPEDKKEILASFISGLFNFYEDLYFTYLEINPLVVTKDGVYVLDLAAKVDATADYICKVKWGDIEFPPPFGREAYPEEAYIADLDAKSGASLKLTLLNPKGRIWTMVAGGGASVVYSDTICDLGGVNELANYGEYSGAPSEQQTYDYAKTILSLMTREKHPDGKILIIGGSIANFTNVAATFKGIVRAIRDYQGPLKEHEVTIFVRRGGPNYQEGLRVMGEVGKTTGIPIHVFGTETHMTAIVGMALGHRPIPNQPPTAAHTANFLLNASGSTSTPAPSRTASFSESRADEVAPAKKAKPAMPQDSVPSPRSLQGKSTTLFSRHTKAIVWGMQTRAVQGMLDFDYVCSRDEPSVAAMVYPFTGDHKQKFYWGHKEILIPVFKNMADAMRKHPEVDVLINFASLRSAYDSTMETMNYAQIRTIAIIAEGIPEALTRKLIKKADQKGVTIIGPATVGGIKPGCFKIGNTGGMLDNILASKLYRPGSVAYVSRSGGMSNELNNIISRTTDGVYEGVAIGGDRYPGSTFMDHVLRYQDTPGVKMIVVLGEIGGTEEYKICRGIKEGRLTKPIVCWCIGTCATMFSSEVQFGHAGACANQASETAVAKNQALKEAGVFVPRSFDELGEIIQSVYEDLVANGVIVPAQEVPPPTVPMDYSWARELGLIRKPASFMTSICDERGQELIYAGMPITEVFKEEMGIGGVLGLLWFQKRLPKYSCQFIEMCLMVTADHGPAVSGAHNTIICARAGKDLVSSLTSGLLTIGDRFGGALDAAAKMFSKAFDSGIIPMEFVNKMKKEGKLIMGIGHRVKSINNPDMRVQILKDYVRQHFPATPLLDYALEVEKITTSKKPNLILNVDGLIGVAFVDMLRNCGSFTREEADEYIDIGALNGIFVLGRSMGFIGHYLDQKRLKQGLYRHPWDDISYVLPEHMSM

Experiments:
[1] = molecular target: IGF2BP2 (human (endogenous in CNE2 and HONE1)) (UniProt Q9Y6M1); test: co-IP; IP in CNE2 and HONE1 cells; antibodies on protein A/G magnetic beads, cell lysates added overnight at 4°C, western blotting
full-length ANKRD22 = full-length ANKRD22 (UniProt Q5VYY1); test: co-IP; Co-IP with full-length and truncated ANKRD22 and SLC25A1 plasmids to map the interacting regions (Figure S8G,H)
[2] = molecular target: ANKRD22 (human (endogenous in CNE2 and HONE1)) (UniProt Q5VYY1); test: co-IP; endogenous Co-IP in CNE2 and HONE1 cells with anti-ANKRD22 or anti-SLC25A1 antibody; also after overexpression of METTL14 (anti-SLC25A1 antibody); protein A/G magnetic beads, lysates overnight at 4°C, western blotting
ANKRD22-Flag = ANKRD22-Flag (UniProt Q5VYY1); test: co-IP; Co-IP of ANKRD22 with key enzymes of lipid metabolism (Figure S8F); antibodies on protein A/G magnetic beads, cell lysates overnight at 4°C, western blotting

binding [1]: binds
Substance: eIF4E (from UniProt P06730 1-217)

binding (full-length ANKRD22): binds
Substance: SLC25A1-His (from UniProt P53007 14-311)

binding [2]: binds | binding (ANKRD22-Flag): binds
Substance: SLC25A1 (from UniProt P53007 14-311)

binding (ANKRD22-Flag): no binding
Substance: ACLY (from UniProt P53396 1-1101) (enzyme)
